Experimental data published in publication PMC2390755.
Results are given in words; binding and its absence hold for the method and conditions named. For part of these data: Binding seen in cells or lysates may run through a third protein. Some results given as binding are weak or reduced against the parent protein; the word gives no strength.

Chains of the proteins cited; added tags and fusions are not shown.
UniProt Q24368: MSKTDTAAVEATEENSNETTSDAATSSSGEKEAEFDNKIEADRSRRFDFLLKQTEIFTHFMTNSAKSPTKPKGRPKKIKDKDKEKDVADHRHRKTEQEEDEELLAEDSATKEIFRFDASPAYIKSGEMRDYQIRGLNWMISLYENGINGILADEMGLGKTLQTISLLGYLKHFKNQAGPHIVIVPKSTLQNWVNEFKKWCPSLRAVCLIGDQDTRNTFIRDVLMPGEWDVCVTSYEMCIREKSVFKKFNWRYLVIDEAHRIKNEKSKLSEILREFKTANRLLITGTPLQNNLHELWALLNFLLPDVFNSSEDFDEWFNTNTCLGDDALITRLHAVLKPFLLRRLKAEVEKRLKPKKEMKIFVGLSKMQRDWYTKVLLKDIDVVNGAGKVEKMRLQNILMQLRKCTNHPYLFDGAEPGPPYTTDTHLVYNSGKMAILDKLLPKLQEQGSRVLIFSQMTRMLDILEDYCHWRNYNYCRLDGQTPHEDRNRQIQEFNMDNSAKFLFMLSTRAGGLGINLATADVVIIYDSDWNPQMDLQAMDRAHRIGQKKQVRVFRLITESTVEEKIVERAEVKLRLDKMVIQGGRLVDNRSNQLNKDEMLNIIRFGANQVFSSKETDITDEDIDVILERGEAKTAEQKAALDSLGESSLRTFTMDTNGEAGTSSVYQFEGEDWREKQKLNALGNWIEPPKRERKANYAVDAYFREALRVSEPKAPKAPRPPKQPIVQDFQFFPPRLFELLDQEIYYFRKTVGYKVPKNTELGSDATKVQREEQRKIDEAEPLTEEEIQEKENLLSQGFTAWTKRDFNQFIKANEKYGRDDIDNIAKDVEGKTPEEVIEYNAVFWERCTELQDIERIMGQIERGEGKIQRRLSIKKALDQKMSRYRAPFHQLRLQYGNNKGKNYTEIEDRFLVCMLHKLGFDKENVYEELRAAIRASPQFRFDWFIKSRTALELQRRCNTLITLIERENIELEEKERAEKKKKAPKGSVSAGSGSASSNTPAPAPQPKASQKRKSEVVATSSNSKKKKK
UniProt Q94517: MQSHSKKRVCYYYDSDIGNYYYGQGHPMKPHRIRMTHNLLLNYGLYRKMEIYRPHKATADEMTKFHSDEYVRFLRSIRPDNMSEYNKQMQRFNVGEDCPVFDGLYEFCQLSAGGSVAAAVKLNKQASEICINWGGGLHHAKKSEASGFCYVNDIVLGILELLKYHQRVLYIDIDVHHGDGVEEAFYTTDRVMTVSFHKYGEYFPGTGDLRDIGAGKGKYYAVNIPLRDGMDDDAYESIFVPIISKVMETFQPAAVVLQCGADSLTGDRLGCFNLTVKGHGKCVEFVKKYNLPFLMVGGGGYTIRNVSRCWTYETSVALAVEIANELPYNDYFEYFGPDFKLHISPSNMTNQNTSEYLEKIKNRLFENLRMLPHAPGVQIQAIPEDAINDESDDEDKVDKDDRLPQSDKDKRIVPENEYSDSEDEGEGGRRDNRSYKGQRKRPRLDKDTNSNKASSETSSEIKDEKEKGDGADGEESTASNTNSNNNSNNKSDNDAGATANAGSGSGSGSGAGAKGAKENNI

How the values were obtained:
[1] = target: HA-6His-tagged ISWI (D. melanogaster) (UniProt Q24368); experiment: co-IP; anti-HA immunoprecipitation on Superose-6 gel filtration fractions (#25, #33) of HisTrap-enriched larval nuclear extract; Western blot
[2] = target: ISWI (D. melanogaster (endogenous in embryos)) (UniProt Q24368); experiment: co-IP; anti-ISWI antibody (4 ug) or generic IgG as control, 500 ug wild-type embryo protein extract, Catch and Release Kit; Western blot for ISWI, Sin3A, Rpd3
[3] = target: HA-6His-tagged ISWI (D. melanogaster) (UniProt Q24368); experiment: co-IP; anti-HA immunoprecipitation from salivary gland total protein extracts of the HA-tagged ISWI line and control extracts; Western blot for ISWI, Sin3A, Rpd3
[4] = target: HA-6His-tagged ISWI (D. melanogaster) (UniProt Q24368); experiment: co-IP; anti-HA (rat 3F10) immunoprecipitation from 0-16 h embryo protein extracts of the HA-6His-tagged ISWI line; control extracts without the transgene; Western blot for ISWI, Sin3A, Rpd3
[5] = target: HA-6His-tagged ISWI (D. melanogaster) (UniProt Q24368); experiment: SEC; ISWI-enriched HisTrap fractions of larval nuclear extract on Superose-6 (15 mM Hepes-KOH pH 8, 250 mM KCl, 10% glycerol); fractions blotted for ISWI, Sin3A, Rpd3; elution at about 600 kDa
[6] = target: TAP-tagged ISWI (D. melanogaster) (UniProt Q24368); experiment: pull-down; tandem affinity purification of TAP-tagged ISWI from larval nuclear extracts (IPP150 buffer): IgG agarose, TEV cleavage, calmodulin resin, SDS elution; Western blot for ISWI, Sin3A, Rpd3; untagged extracts as control

Measured: binding

Rpd3 (from UniProt Q94517 1-521) (enzyme)
binds: all assays above
